No constants are given. Whether binding was seen depends on the method and setting. Binding seen in cells or lysates may run through a third protein. Some entries that bind do so weakly or less than the wild type.

The chains behind the UniProt entries cited, without tags or fusion partners.
UniProt P21554: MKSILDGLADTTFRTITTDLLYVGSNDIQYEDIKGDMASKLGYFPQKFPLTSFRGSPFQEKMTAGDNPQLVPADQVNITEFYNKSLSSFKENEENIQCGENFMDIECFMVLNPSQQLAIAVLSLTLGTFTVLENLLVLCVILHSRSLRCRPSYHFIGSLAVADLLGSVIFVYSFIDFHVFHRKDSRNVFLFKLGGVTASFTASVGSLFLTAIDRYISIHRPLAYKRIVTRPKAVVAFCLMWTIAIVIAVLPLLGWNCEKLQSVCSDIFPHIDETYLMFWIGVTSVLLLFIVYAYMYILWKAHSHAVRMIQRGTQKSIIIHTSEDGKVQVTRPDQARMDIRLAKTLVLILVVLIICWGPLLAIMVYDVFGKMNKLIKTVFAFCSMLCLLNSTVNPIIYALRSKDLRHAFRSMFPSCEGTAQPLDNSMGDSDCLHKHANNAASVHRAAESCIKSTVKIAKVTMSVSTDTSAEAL
UniProt P32121: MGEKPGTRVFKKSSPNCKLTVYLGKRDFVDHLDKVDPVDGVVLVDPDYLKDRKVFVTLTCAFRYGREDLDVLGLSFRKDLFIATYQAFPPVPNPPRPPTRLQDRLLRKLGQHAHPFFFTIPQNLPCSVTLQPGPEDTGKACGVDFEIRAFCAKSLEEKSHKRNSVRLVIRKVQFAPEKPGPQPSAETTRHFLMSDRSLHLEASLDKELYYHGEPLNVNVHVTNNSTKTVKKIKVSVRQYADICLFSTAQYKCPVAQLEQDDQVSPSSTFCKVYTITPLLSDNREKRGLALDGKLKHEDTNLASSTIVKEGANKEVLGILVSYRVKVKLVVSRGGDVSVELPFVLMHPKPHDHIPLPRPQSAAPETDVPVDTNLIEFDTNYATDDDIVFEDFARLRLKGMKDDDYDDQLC
UniProt P35626: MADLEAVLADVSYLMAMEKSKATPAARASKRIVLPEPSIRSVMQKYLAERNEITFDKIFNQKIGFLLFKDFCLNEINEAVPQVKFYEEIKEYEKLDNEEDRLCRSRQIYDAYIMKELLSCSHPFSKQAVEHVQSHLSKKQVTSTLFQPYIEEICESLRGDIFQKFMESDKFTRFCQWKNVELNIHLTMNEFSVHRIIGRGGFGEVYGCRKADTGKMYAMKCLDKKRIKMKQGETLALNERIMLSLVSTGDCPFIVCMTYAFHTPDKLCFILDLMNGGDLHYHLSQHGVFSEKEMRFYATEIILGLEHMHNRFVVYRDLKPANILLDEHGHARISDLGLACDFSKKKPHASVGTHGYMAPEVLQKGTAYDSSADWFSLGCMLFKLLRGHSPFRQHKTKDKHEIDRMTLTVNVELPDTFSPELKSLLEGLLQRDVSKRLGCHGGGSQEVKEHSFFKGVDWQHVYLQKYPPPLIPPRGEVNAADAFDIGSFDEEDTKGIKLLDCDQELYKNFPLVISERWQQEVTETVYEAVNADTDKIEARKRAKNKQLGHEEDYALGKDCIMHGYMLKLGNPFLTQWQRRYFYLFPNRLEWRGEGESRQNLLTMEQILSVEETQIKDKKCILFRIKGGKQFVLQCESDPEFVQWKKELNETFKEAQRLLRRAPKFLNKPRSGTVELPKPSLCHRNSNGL

For this assay, the target named is cannabinoid receptor 1 fused to EYFP (CB1R-EYFP) (UniProt P21554). Put plainly: FRET or BRET; living HEK293 cells co-transfected with GRK3-Rluc8 or β-arrestin2-Rluc (donor) and CB1R-EYFP (acceptor), 1:2; Tyrode's solution pH 7.4, 37 °C; 5 µM coelenterazine h; increasing concentrations of (9S)-HHC, (9R)-HHC or WIN; read 12 min after addition; ΔBRET against vehicle. Background: Bioluminescence resonance energy transfer reports proximity on the nanometre scale.

On to “β-arrestin2 fused to Rluc (β-arrestin2-Rluc) (from UniProt P32121 1-409)”, for which the binding entry is “binds”.
In the case of “G protein-coupled receptor kinase 3 fused to Rluc8 (GRK3-Rluc8) (from UniProt P35626 1-688) (enzyme)”, the binding result is recorded as “binds”.

The values are drawn from publication PMC11035541.
